Reference: PubChem BioAssay AID652237 (Broad Institute, 2013)
In the full data, 1 (14%) got an active call. 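Only yes/no calls were deposited; the ATP values and statistics behind them are not available.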 The record does not give: the amount of reagent.

Purpose: 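Tests if knock-down of candidate compound targets copies its beta-cell protection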 (follow-up of hits)
Cell system: INS-1E rat insulinoma beta-cell line
Knock-down reagent: siRNA against rat genes
Time to read-out: about 120 h (72 h knock-down, then 48 h cytokines)
Conditions: cytokine mixture for 48 h; composition and doses not stated
Read-out: 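ATP level by luminescence as a viability measure after cytokine treatment, each knock-down judged against neutral controls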
Hit rule: 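a knock-down is active if its ATP level rises significantly over neutral control wells, meaning cytokine damage was prevented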

Usp9x (GeneID 363445) [SID161003812] → significant ATP rise over control = significant ATP rise over neutral control (protection from cytokine death); outcome = active
Ipo9 (GeneID 304817) [SID161003817] → significant ATP rise over control = no significant ATP rise over neutral control; outcome = inactive
Gapdh (GeneID 24383) [SID161003815] → significant ATP rise over control = no significant ATP rise over neutral control; outcome = inactive
Xpo1 (GeneID 85252) [SID161003818] → significant ATP rise over control = no significant ATP rise over neutral control; outcome = inactive
Blvrb (GeneID 292737) [SID161003814] → significant ATP rise over control = no significant ATP rise over neutral control; outcome = inactive
Kpna4 (GeneID 361959) [SID161003816] → significant ATP rise over control = no significant ATP rise over neutral control; outcome = inactive
Mcm6 (GeneID 29685) [SID161003813] → significant ATP rise over control = no significant ATP rise over neutral control; outcome = inactive
